Experimental data: patent US11795135B2, “Prostacyclin compounds, compositions and methods of use thereof” (Insmed Incorporated, priority 2013, dated 2023)
For at least one compound, name, drawing or mass did not settle the structure. Some results were stated once for a whole list of compounds, not compound by compound.

By UniProt entry, the sequences of proteins in these tests, tags left out. Where a name states a change or a piece, a line headed by the entry shows the natural chain unless it says otherwise.
UniProt P43116: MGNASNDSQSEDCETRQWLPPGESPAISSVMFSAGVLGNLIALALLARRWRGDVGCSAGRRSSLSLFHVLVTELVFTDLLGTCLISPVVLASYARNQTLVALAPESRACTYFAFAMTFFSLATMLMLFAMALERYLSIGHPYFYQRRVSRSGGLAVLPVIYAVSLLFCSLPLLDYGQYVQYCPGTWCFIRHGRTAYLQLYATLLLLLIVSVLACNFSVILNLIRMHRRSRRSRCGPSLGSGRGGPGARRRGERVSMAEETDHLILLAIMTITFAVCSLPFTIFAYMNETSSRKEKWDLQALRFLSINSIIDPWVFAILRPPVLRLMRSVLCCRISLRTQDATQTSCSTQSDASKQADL

What was measured:
EP2 prostanoid receptor = target: T1, EP2 prostanoid receptor (Homo sapiens, UniProt P43116); experiment: GloSensor cAMP assay in CHO-K1 cells co-transfected with the EP2 receptor; type: cell-based; conditions: for cAMP levels / cAMP activation sustained for: 8 hours time course (FIG. 21, 23, 25, 27); for cAMP response level: unformulated compounds, FIG. 5
T1 construct: host or cells: CHO-K1
Source text: cAMP is a second messenger involved in signal transduction of G-protein coupled receptors (GPCRs) acting through Gα-s and Gα-i proteins. Because the treprostinil receptor is a GPCR, the assay provides an indication of whether the respective prostacyclin compound (or metabolite thereof) binds its receptor and activates the GPCR cell signaling cascade. The GloSensorTM assay harnesses a genetically modified form of firefly luciferase into which a cAMP-binding protein moiety has been inserted. Upon binding of cAMP, a conformational change is induced leading to increased light output. The EP2 prostanoid receptor was co-transfected with the GloSensorTM plasmid (Promega) into CHO-K1 cells as follows. CHO-K1 cells were harvested when the monoloayer was at 50-90% confluence. First, cells were washed with 5 mL PBS. […] The media was aspirated, and the cell pellet was resuspended in 10 mL of growth media. Cell number was determined using a hemacytometer. Each well of a culture treated 96 well flat bottom plate (Costar, Cat #: 3917) was seeded with 1×10^4 cells per 100 μL antibiotic-free growth media. […] For small scale transfections of up to 20 wells, the pGLoSensor-22F cAMP plasmid (Promega, Cat #: E2301) (2 μg): (EP2) (10 ng) (Origene, Cat #: SC126558):pGEM-3Zf(+) (10 ng) (Promega, Cat #: P2271) ratio was diluted to a final concentration of 12.6 ng/μL (total plasmid) in Opti-MEM I reduced-serum medium (Life Technologies, Cat #: 1985062). Next, 6 μL of FuGENE HD transfection reagent (Promega, Cat #: E2311) was added to 160 μL of diluted plasmid and mixed carefully by gentle pipetting. The complex was incubated at room temperature for 0 to 10 minutes, and then 8 μL of the complex was added per well of a 96 well white assay plate (Costar, Cat #: 3917) and gently mixed without disturbing the cell monolayer. […] Following incubation, cells were treated and analyzed. For larger scale transfections, the aforementioned steps were scaled up accordingly, and cells were frozen following the last incubation. In order to prepare frozen transfected CHO-K1 cells, the media was aspirated from culture flasks and cells were rinsed with 5 mL PBS. […] Cell number was determined using a hemacytometer. The media was aspirated, and the cell pellet was resuspended in freezing media (Millipore, cat #: S-002-5F) at 2.5×10^6 cells/vial. Transfected cells were incubated overnight at -80° C. before transfer to liquid nitrogen for long term storage. […] In preparation for cAMP measurement, the cells were equilibrated with the GloSensor cAMP reagent prior to treatment. For equilibration, the medium was carefully removed from the individual well. Next, 100 μL of equilibration medium ([…] of Glosensor Reagent stock solution (Promega, Cat #: E291), 10% FBS (Hyclone, Cat #: SH30071.03) and 88% CO2 independent medium (Life Technologies, Cat #: 18045088)) was added per well of the 96-well plate, and added to the side of each well. The plate was then incubated for 2 hours at room temperature. A first pre-read measurement was taken using a microplate reader (MicroLumat Plus). Plates were incubated for an additional 10 minutes at room temperature, followed by a second pre-read measurement. […] Following treatment, each plate was read every 5 minutes for the duration of the assay using a microplate reader (MicroLumat Plus). In order to determine the fold change in cAMP relative to the control, the transfection efficiency was first determined by dividing the second pre-read measurement by the average of the corresponding pre-read measurements. Next, the normalized relative light units (RLUs) of the samples were determined by dividing the plate read measurement by the transfection efficiency. The fold change in cAMP relative to the control was then determined by dividing the normalized RLU of the samples by the normalized RLU of the control. The cAMP assay was validated using free treprostinil. […] Luminescence was then measured at room temperature. […]

[1] = Particle size characterization of treprostinil compositions (QELS); type: physicochemical; conditions: FIG. 2; for polydispersity (% PD): particles of compositions comprising the alkyl ester

## CCCCC[C@H](O)CC[C@@H]1[C@H]2Cc3cccc(OCC(=O)OC(CCCC)CCCC)c3C[C@H]2C[C@H]1O [Compound 5C9-TR, 5-nonanyl-treprostinil]
EP2 prostanoid receptor; 10 μM and 5 μM
  cAMP levels / cAMP activation sustained for: at least 8 hours

## CCCCC[C@H](O)CC[C@@H]1[C@H]2Cc3cccc(OCC(=O)OCC)c3C[C@H]2C[C@H]1O [Compound C2-TR, treprostinil ethyl ester]
[1]; compositions comprising the alkyl ester (Table 3), QELS
  average particle diameter: 41 nm
[1]
  polydispersity (% PD): greater than 15%
EP2 prostanoid receptor; 5 μM, FIG. 4 and FIG. 5
  duration of cAMP levels compared with free treprostinil and the C6, C8, and C12 derivatives: sustained significantly longer
EP2 prostanoid receptor; compositions, 5 μM, FIG. 4
  cAMP response compared with the response induced by free treprostinil: greater than or equivalent to the response induced by free treprostinil
EP2 prostanoid receptor; 5 μM
  cAMP response level: equivalent to free treprostinil

## CCCCCCCCOC(=O)COc1cccc2c1C[C@H]1C[C@@H](O)[C@H](CC[C@@H](O)CCCCC)[C@H]1C2 [Compound C8-TR, treprostinil octyl ester]
[1]
  polydispersity (% PD): around 15%

## CCCCCCCCCCCCOC(=O)COc1cccc2c1C[C@H]1C[C@@H](O)[C@H](CC[C@@H](O)CCCCC)[C@H]1C2 [Compound C12-TR, dodecyl-treprostinil]
[1]
  polydispersity (% PD): around 15%
EP2 prostanoid receptor; 10 μM and 5 μM
  cAMP levels / cAMP activation sustained for: at least 8 hours
EP2 prostanoid receptor; kinetic profile, 10 μM and 5 μM, FIG. 21
  ranking of activity of the treprostinil compounds: C12-TR>C14-TR>5-nonanyl-TR>C16-TR
EP2 prostanoid receptor; 5 μM
  cAMP response level: smallest cAMP response

## CCCCCCCCCCCCCCOC(=O)COc1cccc2c1C[C@H]1C[C@@H](O)[C@H](CC[C@@H](O)CCCCC)[C@H]1C2 [Compound C14-TR, tetradecyl-treprostinil]
EP2 prostanoid receptor; 10 μM and 5 μM
  cAMP levels / cAMP activation sustained for: at least 8 hours
